This note sets out measurements from patent US11273136B2, “Method for increasing protein content in milk of lactating cows” (neopharma Japan Co., Ltd., priority 2019, dated 2022).

The test system of this data set is lactating Holstein milk cows. As to the kind of experiment: Crossover feeding test of 5-ALA-supplemented total mixed ration on milk yield and milk composition of lactating cows. The format is in vivo. From the text:
Effects of ALAs on the milk composition of a lactating cow was studied. Six lactating Holstein milk cows (average body weight 698±18 kg, average milk production 24.1±1.6 kg/d, average days-in-milk (DIM) 209±34 days, and average number of lactations 2.9±0.4) were placed in a free stable. After a 7-day grace period, 6 cows were randomly assigned to section A and section B (each group n=3). Section A had, after a grace period, an ALA administration period of 14 days (ALA Consumption Group A), with an adjustment period of 7 days interposed, followed by an ALA non-administration period of 14 days (Control Group A), whereas Section B had, after a grace period, an ALA non-administration period of 14 days (Control Group B), with an adjustment period of 7 days interposed, followed by an ALA administration period of 14 days (ALA Consumption Group B), whereby the test was carried out by the crossover method. A total mixed ration (TMR) (see Table 2) which had been used was fed during the above grace period, adjustment period and ALA non-administration period, and a feed to which 10 mg of 5-ALA was added per kg of the total mixed ration (TMR) was fed during the ALA administration period.
5-ALA was provided by neopharma Japan Co., Ltd. Each feed and water were available at any time but feed consumption of each group on a dry base was 23.4 kg/day per cow in the control groups and 23.6 kg/day per cow in the ALA groups. Thus, the daily consumption of 5-ALA in the ALA groups was 0.329.6 mg to 0.347.1 mg/kg b.w./day. Each of the milk cows was milked at 09:00 and 17:00 and allowed to consume each feed at any time after milking.
Amounts of Milking from each cow were automatically recorded everyday by an auto milk recorder (manufactured by ORION MACHINERY CO., LTD.). Additionally, for each group of Section A and Section B, during the last 2 days in the ALA administration period of 14 days and the non-administration period of 14 days, 50 to 100 mL of milk was collected twice a day from cows of each period to use as milk samples for data analysis. The milk samples were preserved at −30° C. until the milk composition and the like were analyzed.
Using the above milk samples collected from each of the cows, the milk composition such as milk fat, proteins, casein, lactose, total solid (TS), solid not fat (SNF), milk urea nitrogen (MUN) and somatic cell count (SCC) was measured using a […] infrared spectroscopy (Milko-Scan, 133N, manufactured by Foss Electric, Hill-erod (Denmark)). Data of each cow were calculated as an average value of 4 milk samples collected for 2 days. […] The data were analyzed statistically as a crossover design using the mixing procedure of SPSS (PASW Statistics 18.0, manufactured by IBM). […]

Where [1] appears, read: 10 mg 5-ALA per kg TMR, 14 days, milk of last 2 days, ± standard error.

With `NCC(=O)CCC(=O)O` [5-ALA, 5-aminolevulinic acid], under setting [1], the “MUN (milk urea nitrogen)” value is 14.87 ± 2.56 mg/dL and the Somatic cell count is given as 7.04 ± 0.62 ×10^3 cells/mL. The “Feed consumption on a dry base” value (ALA groups, feed available at any time) is 23.6 kg/day per cow. Under “feed to which 5-ALA was added”, the “MUN compared with Control Groups” value is “no particular differences”.
